Data as given in PubChem BioAssay AID1224828 (NIAID, 2016)
The deposit covers about 17,000 reagents; below is a random part of them. 762 of all reagents (4.5%) count as active. 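Active calls include both raised and lowered p65 entry, mostly lowered; wells with fewer than 50 cells lack a z-score.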 Raw values are not corrected between plates. A number with no mark means an inactive call. Reagent sequences are not shown.

Purpose: 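Knock-downs that increase or decrease LPS-induced p65 nuclear translocation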 (primary screen)
Cell system: mouse RAW264.7 G9 macrophage reporter cells (GFP-p65, Tnf promoter-mCherry)
Reagents: siRNA pool against mouse genes, 100 nM
Duration: 2 days siRNA transfection, then 40 min LPS before fixation
Challenge: LPS (Salmonella minnesota R595) at 10 ng/ml
Read-out: 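Microscopy ratio of nuclear to perinuclear-ring GFP-p65 signal, scaled to the plate median; gene score is the average of two replicate robust z-scores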
Scale: p65 translocation robust z-score: higher = more nuclear NF-kappaB p65 after LPS than the plate median; nuclear/cytoplasmic p65 ratio: higher = more nuclear NF-kappaB p65
Active means: 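Active if robust z is above 3.3 (negative regulators) or below -1.56, the Tlr4 control median (positive regulators); activity score 50 or more; control wells not called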
Calls: active = hit (p65 shift raised or lowered); inactive = no clear change

The opening 7 records as a preview:
no.	Gene	p65 translocation robust z-score	nuclear/cytoplasmic p65 ratio, rep 1	nuclear/cytoplasmic p65 ratio, rep 2	low cell count flag
1	Or11h7	0.75	1.61	1.36	enough cells to score
2	Samd10	-0.82	1.44	1.46	enough cells to score
3	Gm16938		1.99		fewer than 50 cells per well; well left out of scoring
4	Th	0.46	1.62	1.55	enough cells to score
5	Sntb2	-0.9	1.3	1.12	enough cells to score
6	Adcy6	-0.41	1.45	1.64	enough cells to score
7	Kctd18	1.6	1.59	1.83	enough cells to score

Results, repeating the preview:
no.	Gene	p65 translocation robust z-score	nuclear/cytoplasmic p65 ratio, rep 1	nuclear/cytoplasmic p65 ratio, rep 2	low cell count flag
1	Or11h7	0.75	1.61	1.36	enough cells to score
2	Samd10	-0.82	1.44	1.46	enough cells to score
3	Gm16938		1.99		fewer than 50 cells per well; well left out of scoring
4	Th	0.46	1.62	1.55	enough cells to score
5	Sntb2	-0.9	1.3	1.12	enough cells to score
6	Adcy6	-0.41	1.45	1.64	enough cells to score
7	Kctd18	1.6	1.59	1.83	enough cells to score
8	Mrgprb2	0.73	1.57	1.73	enough cells to score
9	Glipr1l2		1.48	1.21	fewer than 50 cells per well; well left out of scoring
10	Arih1	0.41	1.72	1.64	enough cells to score
11	Gabrb3	-0.28	1.43	1.31	enough cells to score
12	Slc66a3	0.45	1.39	1.54	enough cells to score
13	Rexo4	1.45	1.94	1.68	enough cells to score
14	Magel2	2	1.96	1.9	enough cells to score
15	Cacybp	0.42	1.71	1.79	enough cells to score
16	Mcmbp	0.7	1.53	1.65	enough cells to score
17	A630091E08Rik	0.35	1.44	1.58	enough cells to score
18	Tubgcp3	0.57	1.72	1.46	enough cells to score
19	Skint9	0.78	1.47	1.64	enough cells to score
20	Synj2bp	1.12	1.59	1.24	enough cells to score
21	Srp54a		1.46	1.27	fewer than 50 cells per well; well left out of scoring
22	Asb14	-0.58	1.43	1.51	enough cells to score
23	Eno1	-0.63	1.21	1.44	enough cells to score
24	Sec13		1.8	1.26	fewer than 50 cells per well; well left out of scoring
25	Klra16	0.01	1.48	1.38	enough cells to score
26	Pramel12		1.37	1.17	fewer than 50 cells per well; well left out of scoring
27	Ccne2	0.3	1.42	1.42	enough cells to score
28	Acsl3	-0.16	1.66	1.53	enough cells to score
29	Dnajc6	0.86	1.58	1.45	enough cells to score
30	Polr1h	-0.7	1.33	1.16	enough cells to score
31	Rps6		1.47	1.13	fewer than 50 cells per well; well left out of scoring
32	Klra21	-0.95	1.42	1.2	enough cells to score
33	Gpn2	0.47	1.59	1.85	enough cells to score
34	Or4c124	0.4	1.85	1.52	enough cells to score
35	Pex11a	0.21	1.5	1.42	enough cells to score
36	Elof1	-1.19	1.39	1.27	enough cells to score
37	Pop4	0.06	1.47	1.45	enough cells to score
38	Unc119b	1.68	1.35	1.76	enough cells to score
39	Sppl2b	0.04	1.29	1.21	enough cells to score
40	Nab2	-0.45	1.4	1.27	enough cells to score
41	Trmt44		1.48	1.42	fewer than 50 cells per well; well left out of scoring
42	Brinp2	1.8	1.55	1.75	enough cells to score
43	Guca1b	0.42	1.44	1.47	enough cells to score
44	Ppm1b	-0.69	1.43	1.3	enough cells to score
45	Abhd6	1.07	1.9	1.65	enough cells to score
46	Slc38a10	-0.42	1.31	1.08	enough cells to score
47	Cx3cr1	-0.75	1.39	1.48	enough cells to score
48	Akap11	-0.39	1.68	1.29	enough cells to score
49	Esrrb	-0.53	1.5	1.38	enough cells to score
50	Vps26b	0.39	1.55	1.37	enough cells to score
51	Ankle2	-0.32	1.45	1.45	enough cells to score
52	5930403N24Rik	0.72	1.38	1.64	enough cells to score
53	Fut7	-0.62	1.54	1.34	enough cells to score
54	Ovca2	1.04	1.61	1.53	enough cells to score
55	Pogz		1.27	1.26	fewer than 50 cells per well; well left out of scoring
56	Azi2	2.08	1.82	1.88	enough cells to score
57	Nr2c1	-1.54	1.22	1.24	enough cells to score
58	Slc26a2	0.37	1.59	1.55	enough cells to score
59	C130074G19Rik	1.53	1.68	1.69	enough cells to score
